According to paper PMC7491322:

Key:
[1] = system: Lsm1-7 (Schizosaccharomyces pombe); assay: fluorescence polarization; conditions: FP: 100 mM NaCl, 20 mM Tris pH 8.2 (final ~8), 10 mM MgCl2, 1 mM TCEP, 1 mM Na azide, 0.1 mg/mL each tRNA, BSA and heparin; temperature not stated; 1 nM RNA final; recombinant protein; label: 5'-FAM
[2] = system: Lsm1Δ56C-7 (Schizosaccharomyces pombe); assay: fluorescence polarization; conditions: FP: 100 mM NaCl, 20 mM Tris pH 8.2 (final ~8), 10 mM MgCl2, 1 mM TCEP, 1 mM Na azide, 0.1 mg/mL each tRNA, BSA and heparin; temperature not stated; 1 nM RNA final; recombinant protein; protein details: as P2; label: 5'-FAM

Row | Sequence | binding result [1] | binding result [2]
1 | ACCCAUUUUU | binds more weakly | –
2 | UUUUUUUUUUUUUAA [U13AA] | – | binds
3 | UUUUUUUUUUUUUUA [U14A] | – | binds
4 | UUUUUUUUUUUUUUU [U15] | – | binds

Construct, isoform or probe ends are uncertain for at least one entry. For some of these results: The comparison behind a weaker result is the experiment's own reference, which may not be listed here. At least one verdict was read from the data and is not stated in words by the source.
